Assay results from paper PMC6307790.
These are yes or no findings as the source states them, for the method shown. For some of these results: In cells and extracts the contact can be indirect. Some binding calls cover weakened binding; strength is not graded here. Blank lines part the entries; values can stand above or below the binder they belong to.

Protein sequences, listed by entry. Tags and fused reporters are not part of them.
UniProt Q9Y5Y6: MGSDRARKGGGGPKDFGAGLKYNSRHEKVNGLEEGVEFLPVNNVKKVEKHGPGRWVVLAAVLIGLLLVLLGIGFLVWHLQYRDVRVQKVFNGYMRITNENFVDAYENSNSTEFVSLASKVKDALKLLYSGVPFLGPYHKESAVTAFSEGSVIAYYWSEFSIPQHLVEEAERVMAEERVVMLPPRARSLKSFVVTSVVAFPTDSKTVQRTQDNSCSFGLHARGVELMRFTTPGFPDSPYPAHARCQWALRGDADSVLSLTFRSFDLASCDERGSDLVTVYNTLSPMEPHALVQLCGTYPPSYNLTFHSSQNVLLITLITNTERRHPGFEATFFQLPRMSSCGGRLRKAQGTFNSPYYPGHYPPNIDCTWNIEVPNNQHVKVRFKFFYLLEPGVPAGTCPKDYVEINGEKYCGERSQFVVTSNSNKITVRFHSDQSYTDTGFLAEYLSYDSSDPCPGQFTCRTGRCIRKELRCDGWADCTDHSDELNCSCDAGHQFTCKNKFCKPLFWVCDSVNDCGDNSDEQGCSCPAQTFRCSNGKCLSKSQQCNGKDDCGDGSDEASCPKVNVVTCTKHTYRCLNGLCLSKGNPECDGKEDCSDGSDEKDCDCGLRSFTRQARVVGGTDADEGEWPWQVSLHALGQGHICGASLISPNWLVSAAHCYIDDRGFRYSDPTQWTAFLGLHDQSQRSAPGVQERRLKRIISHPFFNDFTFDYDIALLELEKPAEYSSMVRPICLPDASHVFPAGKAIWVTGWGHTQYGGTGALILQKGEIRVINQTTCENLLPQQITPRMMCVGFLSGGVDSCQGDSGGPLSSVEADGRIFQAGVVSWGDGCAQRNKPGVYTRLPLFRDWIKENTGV

Legend:
[1] = target: activated matriptase (human (endogenous in A431, MCF-7 and SW620)) (UniProt Q9Y5Y6); assay: co-IP; A431 cells serum-starved, treated with 3-Cl-AHPC (1 uM) for 12 hours; lysis in 1% Triton X-100 in PBS; M69 or M19 immobilised on Protein G Agarose, overnight in a cold room; elution with 0.1 M glycine pH 2.4; immunoblot without beta-mercaptoethanol
[2] = target: activated matriptase (human (endogenous in A431, MCF-7 and SW620)) (UniProt Q9Y5Y6); assay: Western blot of non-reduced, non-boiled samples on SDS-PAGE (~120 kD complex band); cell lysates of A431, MCF-7 and SW620 cells, untreated or treated with 3-Cl-AHPC (times and doses varied), EGF, matriptase siRNA or HAI-1 plasmid; 8% SDS-PAGE; complex band detected with M24, M69 and M19 antibodies
[3] = target: activated matriptase (human (endogenous in A431, MCF-7 and SW620)) (UniProt Q9Y5Y6); assay: Western blot of non-reduced, non-boiled samples on SDS-PAGE (~120 kD complex band); conditioned medium of A431 and MCF-7 cells treated with 1 uM 3-Cl-AHPC for 12 hours

- binding [1]: binds
- binding [2]: binds
- binding [3]: binds
B1: Hepatocyte growth factor activator inhibitor-1 (HAI-1) (protein, UniProt O43278 36-529)
chain: GPPPAPPGLPAGADCLNSFTAGVPGFVLDTNASVSNGATFLESPTVRRGWDCVRACCTTQNCNLALVELQPDRGEDAIAACFLINCLYEQNFVCKFAPREGFINYLTREVYRSYRQLRTQGFGGSGIPKAWAGIDLKVQPQEPLVLKDVENTDWRLLRGDTDVRVERKDPNQVELWGLKEGTYLFQLTVTSSDHPEDTANVTVTVLSTKQTEDYCLASNKVGRCRGSFPRWYYDPTEQICKSFVYGGCLGNKNNYLREEECILACRGVQGGPLRGSSGAQATFPQGPSMERRHPVCSGTCQPTQFRCSNGCCIDSFLECDDTPNCPDASDEAACEKYTSGFDELQRIHFPSDKGHCVDLPDTGLCKESIPRWYYNPFSEHCARFTYGGCYGNKNNFEEEQQCLESCRGISKKDVFGLRREIPIPSTGSVEMAVAVFLVICIVVVVAILGYCFFKNQRKDFHGHHHHPPPTPASSTVSTTEDTEHLVYNHTTRPL

- binding [2]: binds
B2: ectopically overexpressed HAI-1 (protein, UniProt O43278 36-529)
chain: B1 chain
